# Experimental data published in PubChem BioAssay AID493014 (National Center for Advancing Translational Sciences (NCATS), 2011).
# The list shows a part of the results. The main result of the screen is listed elsewhere. These columns were measured beside it and carry no call. The list favours compounds with an active or inconclusive main result. Potencies come from curve fits of mixed quality, noted in brackets.
# Experiment: qHTS Assay to Find Inhibitors of Chronic Active B-Cell Receptor Signaling
# Details: ABC-DLBCL IkBa-CBG/CBR reporter, luminescence ratio (green luciferase fused to IkBa over red control in TMD8 lymphoma cells), 4 h
# How it was run: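 TMD8 ABC-DLBCL cells carrying doxycycline-inducible green luciferase fused to IkappaBalpha plus unfused red luciferase were exposed to compounds (up to 46 uM) for 4 hrs at 37C. Activity came from the overlap-corrected green/red luminescence ratio.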
# [1] = measured here: CBR red luminescence, cell number
# [2] = measured here: IkBa-CBG green luminescence
Structure (SMILES),AC50 [1],AC50 [2]
Cc1cccc(NC(=O)C2C3C=CC(C4CC34)C2C(=O)O)c1 (stereo not given),"23.1 µM [rising, partial curve, poor fit]",–
Cc1cc(C)cc(N(C(=O)c2ccc3c(c2)OCO3)C2C=CS(=O)(=O)C2)c1 (stereo not given),"11.2 µM [falling, partial curve]",–
CCOC(=O)C1CCN(C(=O)COc2ccc(Br)cc2C)CC1,"8.91 µM [falling, partial curve]",–
O=C(OCC(=O)c1cccs1)C1=COCCO1,"6.51 µM [falling, single point]",–
CCOC(=O)c1ccc(N=C2NC(=O)CS2)cc1,"29.1 µM [rising, single point]",–
COc1cccc2sc3cc(C#CC4(O)CCCCC4)ccc3c(=O)c12,"13 µM [falling, partial curve]",–
Cc1cc(C(=O)Cn2ncc(Cl)c(Cl)c2=O)c(C)n1CC(F)(F)F,"11.6 µM [falling, partial curve, poor fit]","20.6 µM [rising, partial curve, poor fit]"
Cc1ccsc1/C=N/NC(=O)c1c[nH]c2ccccc12,"20 µM [falling, single point]",–
CC(NC(=O)c1ccc(Cl)s1)C1CCCO1 (stereo not given),"14.6 µM [rising, partial curve]",–
O=C(/C=C/c1ccco1)NCCc1ccc(F)cc1,"8.91 µM [falling, partial curve, poor fit]",–
Oc1ccc(Nc2ncnc3c2oc2ccccc23)cc1,"3.98 µM [falling, partial curve, poor fit]",–
O=C(CSc1nnc(Cc2cccs2)n1-c1ccccc1)NC1CCCCC1,"35.5 µM [falling, single point]",–
Cc1ccc(-c2nc(CS(=O)CC(=O)NCCC(C)C)c(C)o2)cc1 (stereo not given),"8.2 µM [falling, partial curve, poor fit]",–
COc1ccc2c(C)cc(SCc3c(C)noc3C)nc2c1,"4.47 µM [rising, full curve, poor fit]",–
O=C(N/N=C1\CC2CC=CC12)c1ccc(O)cc1 (stereo not given),"0.316 µM [falling, full curve]",–
COc1cc(-c2nc3cnccn3c2Nc2c(C)cccc2C)ccc1O,"14.6 µM [falling, single point]",–
Cc1ccccc1Nc1nc(N)nc(COC(=O)[C@@H](NC(=O)c2c(F)cccc2F)C(C)C)n1,"14.6 µM [rising, single point]",–
Cc1ccc(NC(=O)CN(C)C(=O)Nc2ccc(C)cc2)cc1,"11.2 µM [rising, partial curve]",–
Nc1nc(-c2ccc(Cl)cc2)nnc1-c1ccc(Br)cc1,"3.98 µM [falling, full curve]",–
CCC1=Nc2cc(C(=O)NCCCOC)ccc2Sc2ccccc21,"2.91 µM [rising, full curve]","4.11 µM [falling, full curve]"
CCOc1ccc(NC(=O)Nc2cccs2)cc1,"23.1 µM [falling, single point]",–
COc1ccc2oc(C(=O)OCC(=O)NCCc3ccccc3)c(C)c2c1,"23.1 µM [rising, partial curve, poor fit]",–

Structure (SMILES),AC50 [1],AC50 [2]
N/C(=N\OC(=O)Cc1ccccc1)c1cccc(Br)c1,"15.8 µM [rising, partial curve, poor fit]",–
Clc1ccc(CSc2nnc([C@@H]3CCCN3)o2)cc1,"10 µM [rising, partial curve]",–
COc1ccc2oc(=N)c(-c3nnc4n3CCCCC4)cc2c1,"20.6 µM [rising, single point]",–
Cc1ccc(NC(=O)CSc2nccn2C2CCCC2)cc1,"35.5 µM [rising, single point]",–
C/C(=N\NC(=O)C1(C)CC1(Br)Br)c1cccc(NC(=O)c2ccc(C)o2)c1 (stereo not given),"17.8 µM [falling, single point]",–
COC(=O)C(Nc1ccccc1Cl)(c1cc(C)c(O)c(C)c1)C(F)(F)F (stereo not given),"29.1 µM [falling, single point]","20.6 µM [rising, partial curve, poor fit]"
COC(=O)c1ccc(/C=C2\Oc3ccccc3NC2=O)cc1,"0.251 µM [falling, full curve]",–
CCOC(=O)/C(=N\NC(=O)c1ccccc1)c1ccccc1,"1.46 µM [falling, partial curve]",–
O=C(COc1cccc(F)c1)Nc1nc(-c2cccnc2)cs1,"29.1 µM [rising, partial curve, poor fit]",–
O=C(Nc1cccc(O)c1)c1cc(-c2ccco2)on1,"1.46 µM [falling, full curve]",–
COC(=O)Cc1ccc(NC(=O)c2ccc(Br)o2)cc1,"4.11 µM [rising, full curve, poor fit]",–
COc1ccc(C=O)cc1COc1ccccc1F,"23.1 µM [rising, single point]",–
O=C(Nc1cc2nn(-c3ccccc3)nc2cc1Cl)c1ccco1,"2.91 µM [rising, full curve, poor fit]",–
CC(=O)c1cccc(Nc2c3c(nc4ccccc24)CCC3)c1,–,"22.4 µM [falling, single point]"
COc1ccc(N(C(=O)CNC(=O)c2cccs2)C(C(=O)NCC2CCCO2)c2ccccc2)cc1 (stereo not given),"4.47 µM [falling, full curve, poor fit]",–
O=C1CSC(=Nc2ccc(O)cc2)N1,"22.4 µM [falling, single point]",–
C=CCn1c(CCC(=O)O)ccc1-c1ccc(OC)cc1,"29.1 µM [rising, single point]",–
Cc1c(C=O)c2ccccn2c1C(=O)c1ccccc1Cl,"35.5 µM [falling, single point]",–
CC(C)Oc1ccc(NC(=O)CCC(=O)O)cc1,"20.6 µM [falling, partial curve, poor fit]",–
C=CCn1c(O)c(C2=c3ccccc3=NC2=O)c2ccccc21,"35.5 µM [falling, single point]",–
Fc1ccc2cnc(-c3ccccc3)c(-c3cccc(C(F)(F)F)c3)c2c1,"4.61 µM [falling, full curve]",–
COc1cccc(/C=N/NC(=O)c2[nH]nc3c2CCc2ccccc2-3)c1O,"5.17 µM [falling, full curve, poor fit]","20.6 µM [falling, partial curve, poor fit]"

# Structures above that contain a COOH group, in the order listed:
Structure (SMILES),AC50 [1],AC50 [2]
Cc1cccc(NC(=O)C2C3C=CC(C4CC34)C2C(=O)O)c1 (stereo not given),"23.1 µM [rising, partial curve, poor fit]",–
C=CCn1c(CCC(=O)O)ccc1-c1ccc(OC)cc1,"29.1 µM [rising, single point]",–
CC(C)Oc1ccc(NC(=O)CCC(=O)O)cc1,"20.6 µM [falling, partial curve, poor fit]",–

# (cont.)

Structure (SMILES),AC50 [1],AC50 [2]
O=c1c2cc3c(=O)n(-c4ccccc4O)c(=O)c3cc2c(=O)n1-c1ccccc1O,"11.2 µM [falling, partial curve]",–
Cc1cccc(Cc2c(C)nc3c(C(=O)N4CCN(Cc5ccc6c(c5)OCO6)CC4)cnn3c2C)c1,"14.1 µM [falling, single point]",–
Cc1ccccc1Nc1nc(N)nc(COC(=O)C(NC(=O)c2ccco2)C(C)C)n1 (stereo not given),"3.55 µM [rising, full curve, poor fit]",–
O=C(Nc1nc2ccccc2s1)c1ccccc1,"1.26 µM [falling, full curve]",–
O=C(c1ccc2c3c(cccc13)CC2)C1CCCN(Cc2cccnc2)C1 (stereo not given),"31.6 µM [falling, single point]",–
COc1ccccc1-n1c(SCC(=O)OC(C)C)nc2cccnc21,"7.94 µM [rising, partial curve, poor fit]",–
Cc1ccc(NC(=O)Nc2ccc([N+](=O)[O-])cc2)nc1,"0.708 µM [rising, full curve, poor fit]",–
COc1ccccc1NC(=O)c1ccccc1NC(=O)c1cccs1,"35.5 µM [falling, single point]",–
COC(=O)c1sccc1NC(=O)Nc1ccc(C(C)=O)cc1,"1.26 µM [falling, full curve]",–
CCOc1ccc2c(c1)OC(c1ccc(C)cc1)(C(F)(F)F)NC2=O (stereo not given),"20.6 µM [rising, partial curve, poor fit]","18.4 µM [falling, single point]"
COc1ccc(Nc2nc(C)cc(C)n2)cc1Cl,"10 µM [rising, partial curve, poor fit]",–
CCOC(=O)/C(O)=C(\C#N)c1nc2ccccc2[nH]1,"11.2 µM [falling, partial curve]",–
COc1cc(/C=C/C(=O)O)cc(S(=O)(=O)Nc2ccccc2C(=O)NCCc2ccccc2)c1OC,"14.1 µM [falling, single point]",–
O=C(COC(=O)c1ccccc1Cl)NCCC1=CCCCC1,"0.891 µM [rising, full curve, poor fit]",–
CCOCCCn1c(=S)[nH]c2cc(C(=O)NCCc3ccc(OC)c(OC)c3)ccc2c1=O,"35.5 µM [rising, single point]",–
COc1cccc(NC(=O)CSc2nc3scc(C)c3c(=O)[nH]2)c1,"3.16 µM [rising, partial curve, poor fit]",–
O=C(N/N=C\c1c[nH]c2ccccc12)c1ccc(O)cc1,"10 µM [falling, partial curve]",–
O=C(Nc1cccc(C(=O)N2CCOCC2)c1)c1ncn[nH]1,"6.51 µM [rising, single point]",–
CCn1c(C)c(C(C)=O)c(N2CCCCC2)nc1=S,"25.9 µM [rising, single point]",–
CN1CCN(S(=O)(=O)c2cccc(C(=O)Nc3cccc(S(N)(=O)=O)c3)c2)CC1,"3.16 µM [rising, partial curve, poor fit]",–
C[C@H](NC(=O)N1CCn2c1nc1ccccc12)C(=O)NCCc1ccccc1,"35.5 µM [falling, single point]",–
